Reference: article PMC9040617
Results are given in words; binding and its absence hold for the method and conditions named. In cells and extracts the contact can be indirect. A yes stands for co-enrichment or nearness to the bait. Other partners may have been found. For some assays here: No binding means not detected with the bait. One block for each binder: values may come before it.

Amino acid sequences for entries named in this document (tags omitted). A change or cut given only in a name is not applied to a line headed by its entry.
UniProt Q1D3Y4: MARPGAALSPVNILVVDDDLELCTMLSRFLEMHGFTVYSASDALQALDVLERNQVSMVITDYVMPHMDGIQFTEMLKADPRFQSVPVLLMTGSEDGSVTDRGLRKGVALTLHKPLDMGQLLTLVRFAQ

Assays:
[1] = molecular target: MBP-MXAN_4468 (Myxococcus xanthus DK1622) (UniProt Q1D3Y4); test: affinity purification with mass spectrometry; purified MBP-tagged MXAN_4468 (wild type, D61V or D61F) plus MBP filler mixed with the supernatant of sonicated DK1622 cells, 4°C for 4 h; washed on the column, eluted with 10 mM maltose; eluate identified by mass spectrometry; MBP plus filler and filler alone as controls; only the target purified
[2] = molecular target: 4468-D61V-MBP (Myxococcus xanthus DK1622) (UniProt Q1D3Y4); test: as above

- binding [1]: binds
B1: RNA polymerase sigma 70 factor (MXAN_7454) (protein, UniProt Q1CVL4 1-212)
chain: MVSSIFPAPDVGHFVDPVGPSRRGPLSDDTSAETGPWLARFHAGDARVLNACYRDHFDTVYRAAVRVLPAVDAETVVHDVFLRLVSDEAARRSFQGGSLAGWLHTLSHNLAVDRVRRQRRESDALAQLAVESSASEEPTPPEPGLDASFLLERFRQESLPPKWAPVFEARFVLQLSQREAAAALRMRRTTLAYQELRVRQLLKKFLLTPEAR

- binding [1]: binds
B2: sigma 54 transcriptional regulator (MXAN_0907) (protein, UniProt Q1DDV5 1-607)
chain: MAHSQPSARDTRPLGSAPESSDSGASYLLVLEGDSTSRFALPAEGVVLVGRDEQADLCLRDDSVSRRHARLVLTEEGARLVDLGSHNGTTLNGRPVDTAQPLLSGDVVSFGAVVAVVRTRARAAPAHAPLQAERLMARLREEAERALRYGRPLTALVLALPQQGCVGHEAAEALLAAEAGPAEAAGWLDSSHLLWMMPEVSGEPGEDGLGERVGALLAACPQGRLGIATCPSDGCDAESLVAAARAAARTAVSGAWAPAAEGITRLTLADRTVLVADPAMAQLFTLLRRLAASELPVLVCGETGVGKENAAFAVHHWSPRSDKPFIAINCAALPEGLVESELFGHERGAFTGANTTRVGLLESAQGGTVFLDEVGELPPSAQAKLLRALEVRRITRVGDVRERPIDLRVVAATHRDLEAEVAAGRFREDLYFRLGAATVLLPPLRERPREVPLLARDFLARACQSLGREEMELSAGTLYALSRHAWPGNVRELRNLMDYAAAAVPENVVEPHHLPSRLQPRGASAPAQDLGPPPAVAERVSPQKTRVPLAQEIRDLERRRMQEALDEAEGVQTRAAAMIGMPIRTFSFKLKQLGLQPRTSRKGPPIG

- binding [1]: binds
B3: transcriptional regulator (MXAN_1757) (protein, UniProt Q1DBG6 1-314)
chain: MQVLIVNTSLFPHLQTFLAVARTRSFSAAARDLGISRSAVSQSVRLLEGKLRVPLVARTTRSVSLTEAGRRLVESAGPAVTQVQAALTQASAKPGEVVGRVRLTVPRAAFHFVIEPVLPKFRERHPRIEVDLVFEDRMVDLVGEGFDAGVRLSEYVERDMVSVRLTDAFRFIVVGSPTYLGRHGTPGRPEDLLEHECLTFRSSTTGSLYAWEFERGRRTWRVPVRGSLVVNDGLICIRWAEQGLGLAYVMEPLVGEQLRKGSLQRVLEPYAATVPGFFLYYPSRAQSSAPLRLFVETVRELTRKPPVATKQLGP

B4: HrcA (MXAN_6726) (protein, UniProt Q1CXN0 1-343)
chain: MSEELGEREKEVLRAVVQEYISTGGPVGSQQLTRRPGFEVSSATMRNVLADLEELGFLEKPHTSAGRVPTDQGYRFYVDTLVKLKDPTPRDRELIHAGLAHEADLAEMLGEASRILHSLTRHAGVVVAPRPESAVFRRIEFVRLREDRVLAILVGQSGQVHNKAITVEFPITSDELLKASNYLSELLREVPLESARERIRAEMDQEQALYNALTAKALKLGAAATDLASTERMLIQGTGSFFEQPEFADVERMRALFRALDEKHKLLSLLDRVQVANEMQIFIGAESDFSAAGDVTVIASPYGNQEQVLGTVGVIGPTRMDYRRVIPLVNFTAQVLSRVLEKV
- binding [2]: no binding
- binding [1]: binds
